Measurements published in paper PMC5990496.
No constants are given. Whether binding was seen depends on the method and setting. In cells and extracts the contact can be indirect. Some results given as binding are weak or reduced against the parent protein; the word gives no strength. Tags and fused reporters may be left off the sequences shown.

Assays:
Test in all cases: co-IP; overexpressed, tagged versions of centrobin and CEP120, from cell extracts, at 4°C; which protein was precipitated is not told
[1] = biological target: T1, tagged CEP120 V194A (JS mutation) (human) (UniProt Q8N960)
T1 sequence: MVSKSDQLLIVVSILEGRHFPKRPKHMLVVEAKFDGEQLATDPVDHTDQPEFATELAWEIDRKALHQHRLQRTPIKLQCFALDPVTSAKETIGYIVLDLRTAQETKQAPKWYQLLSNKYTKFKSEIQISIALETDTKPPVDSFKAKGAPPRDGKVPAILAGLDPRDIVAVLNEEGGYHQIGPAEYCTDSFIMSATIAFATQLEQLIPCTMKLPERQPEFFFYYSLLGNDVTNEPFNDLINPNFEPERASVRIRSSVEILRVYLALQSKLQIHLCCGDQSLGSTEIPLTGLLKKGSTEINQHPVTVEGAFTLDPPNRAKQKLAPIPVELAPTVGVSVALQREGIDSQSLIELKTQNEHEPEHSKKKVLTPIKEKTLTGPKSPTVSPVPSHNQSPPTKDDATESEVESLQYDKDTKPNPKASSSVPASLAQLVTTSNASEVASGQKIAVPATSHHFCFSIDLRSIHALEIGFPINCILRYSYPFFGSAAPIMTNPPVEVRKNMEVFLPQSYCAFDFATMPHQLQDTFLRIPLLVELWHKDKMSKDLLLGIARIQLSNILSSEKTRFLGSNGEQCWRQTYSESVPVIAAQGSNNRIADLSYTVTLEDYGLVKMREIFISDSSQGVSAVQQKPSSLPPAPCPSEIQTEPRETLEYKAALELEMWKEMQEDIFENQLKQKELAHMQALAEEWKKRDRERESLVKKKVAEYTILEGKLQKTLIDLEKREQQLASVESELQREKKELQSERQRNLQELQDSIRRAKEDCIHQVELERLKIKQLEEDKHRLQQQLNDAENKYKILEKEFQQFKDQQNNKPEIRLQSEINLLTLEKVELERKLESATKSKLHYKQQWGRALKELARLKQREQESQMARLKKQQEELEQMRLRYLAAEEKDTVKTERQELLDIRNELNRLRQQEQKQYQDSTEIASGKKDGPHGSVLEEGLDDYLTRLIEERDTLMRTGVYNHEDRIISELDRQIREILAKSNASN

[2] = biological target: T2, tagged CEP120 (overexpressed, for co-immunoprecipitation) (human) (UniProt Q8N960)
T2 sequence: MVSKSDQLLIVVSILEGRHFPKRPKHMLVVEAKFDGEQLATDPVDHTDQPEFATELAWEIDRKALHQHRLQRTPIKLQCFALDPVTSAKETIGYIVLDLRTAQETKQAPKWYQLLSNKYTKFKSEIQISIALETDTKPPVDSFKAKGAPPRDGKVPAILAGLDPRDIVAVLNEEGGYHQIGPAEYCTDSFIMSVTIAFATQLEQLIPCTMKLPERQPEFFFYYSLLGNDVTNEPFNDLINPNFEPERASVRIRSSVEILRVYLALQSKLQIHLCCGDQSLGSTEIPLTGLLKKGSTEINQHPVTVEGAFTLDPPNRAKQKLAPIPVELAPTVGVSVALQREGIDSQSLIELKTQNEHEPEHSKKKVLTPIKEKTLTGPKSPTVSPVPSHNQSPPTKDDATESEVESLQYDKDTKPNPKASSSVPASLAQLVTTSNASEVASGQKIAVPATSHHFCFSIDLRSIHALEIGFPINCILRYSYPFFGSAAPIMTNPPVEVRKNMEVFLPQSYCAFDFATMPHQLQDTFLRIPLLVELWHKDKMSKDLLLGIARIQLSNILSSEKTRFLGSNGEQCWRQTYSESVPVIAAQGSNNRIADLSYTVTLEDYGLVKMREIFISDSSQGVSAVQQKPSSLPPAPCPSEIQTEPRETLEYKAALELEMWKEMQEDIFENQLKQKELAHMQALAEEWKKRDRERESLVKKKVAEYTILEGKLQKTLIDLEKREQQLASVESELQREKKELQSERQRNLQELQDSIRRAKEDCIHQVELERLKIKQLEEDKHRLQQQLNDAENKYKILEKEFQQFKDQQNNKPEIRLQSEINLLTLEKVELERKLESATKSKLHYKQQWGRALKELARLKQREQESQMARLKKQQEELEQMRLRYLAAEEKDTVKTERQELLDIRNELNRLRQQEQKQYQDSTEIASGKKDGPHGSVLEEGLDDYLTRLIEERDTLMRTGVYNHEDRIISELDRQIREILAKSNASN

[3] = biological target: T3, tagged CEP120 A199P (JATD mutation) (human) (UniProt Q8N960)
T3 sequence: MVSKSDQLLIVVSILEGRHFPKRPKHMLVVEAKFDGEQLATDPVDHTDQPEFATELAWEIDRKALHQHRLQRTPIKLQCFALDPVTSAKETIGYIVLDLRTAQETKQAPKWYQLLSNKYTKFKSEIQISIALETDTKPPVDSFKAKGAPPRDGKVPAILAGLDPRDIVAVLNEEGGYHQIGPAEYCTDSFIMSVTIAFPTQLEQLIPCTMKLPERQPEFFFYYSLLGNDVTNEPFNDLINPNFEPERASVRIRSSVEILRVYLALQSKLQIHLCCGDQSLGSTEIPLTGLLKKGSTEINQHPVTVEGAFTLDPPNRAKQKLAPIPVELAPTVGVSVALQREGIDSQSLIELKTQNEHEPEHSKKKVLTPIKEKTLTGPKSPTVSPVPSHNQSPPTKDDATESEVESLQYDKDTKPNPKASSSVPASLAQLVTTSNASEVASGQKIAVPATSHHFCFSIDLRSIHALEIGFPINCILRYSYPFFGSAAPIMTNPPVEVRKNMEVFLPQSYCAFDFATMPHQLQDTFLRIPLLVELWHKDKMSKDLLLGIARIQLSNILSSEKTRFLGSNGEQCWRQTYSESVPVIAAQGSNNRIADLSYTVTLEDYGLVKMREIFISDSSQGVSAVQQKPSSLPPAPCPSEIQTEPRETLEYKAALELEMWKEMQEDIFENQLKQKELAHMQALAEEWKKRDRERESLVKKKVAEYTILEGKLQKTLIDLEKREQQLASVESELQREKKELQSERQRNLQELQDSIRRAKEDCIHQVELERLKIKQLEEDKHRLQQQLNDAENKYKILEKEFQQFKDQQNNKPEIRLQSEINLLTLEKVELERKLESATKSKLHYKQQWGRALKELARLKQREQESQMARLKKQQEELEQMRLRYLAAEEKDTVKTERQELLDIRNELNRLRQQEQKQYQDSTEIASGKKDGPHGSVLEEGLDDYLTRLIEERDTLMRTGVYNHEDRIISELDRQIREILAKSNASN

binding [1]: binds
binding [2]: binds
binding [3]: binds
B1: tagged centrobin (overexpressed, for co-immunoprecipitation) (protein, UniProt Q8N137 1-903)
chain: MATSADSPSSPLGAEDLLSDSSEPPGLNQVSSEVTSQLYASLRLSRQAEATARAQLYLPSTSPPHEGLDGFAQELSRSLSVGLEKNLKKKDGSKHIFEMESVRGQLQTMLQTSRDTAYRDPLIPGAGSERREEDSFDSDSTATLLNTRPLQDLSPSSSAQALEELFPRYTSLRPGPPLNPPDFQGLRDALDSEHTRRKHCERHIQSLQTRVLELQQQLAVAVAADRKKDTMIEQLDKTLARVVEGWNRHEAERTEVLRGLQEEHQAAELTRSKQQETVTRLEQSLSEAMEALNREQESARLQQRERETLEEERQALTLRLEAEQQRCCVLQEERDAARAGQLSEHRELETLRAALEEERQTWAQQEHQLKEHYQALQEESQAQLEREKEKSQREAQAAWETQHQLALVQSEVRRLEGELDTARRERDALQLEMSLVQARYESQRIQLESELAVQLEQRVTERLAQAQESSLRQAASLREHHRKQLQDLSGQHQQELASQLAQFKVEMAEREERQQQVAEDYELRLAREQARVCELQSGNQQLEEQRVELVERLQAMLQAHWDEANQLLSTTLPPPNPPAPPAGPSSPGPQEPEKEERRVWTMPPMAVALKPVLQQSREARDELPGAPPVLCSSSSDLSLLLGPSFQSQHSFQPLEPKPDLTSSTAGAFSALGAFHPDHRAERPFPEEDPGPDGEGLLKQGLPPAQLEGLKNFLHQLLETVPQNNENPSVDLLPPKSGPLTVPSWEEAPQVPRIPPPVHKTKVPLAMASSLFRVPEPPSSHSQGSGPSSGSPERGGDGLTFPRQLMEVSQLLRLYQARGWGALPAEDLLLYLKRLEHSGTDGRGDNVPRRNTDSRLGEIPRKEIPSQAVPRRLATAPKTEKPPARKKSGHPAPSSMRSRGGVWR
